The assay has as its target T1, IFT20 (Chlamydomonas reinhardtii (endogenous in Chlamydomonas cells)) (UniProt Q8LLV9).
T1 sequence: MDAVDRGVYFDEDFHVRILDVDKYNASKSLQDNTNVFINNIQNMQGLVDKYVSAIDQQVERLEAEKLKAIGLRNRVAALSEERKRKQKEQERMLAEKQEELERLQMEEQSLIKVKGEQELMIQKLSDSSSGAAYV
The experiment in a line: co-IP.

Results are given in words; binding and its absence hold for the method and conditions named. In cells and extracts the contact can be indirect. A result given as binding can be weak or reduced; the word gives no strength.

Regarding Chlamyopsin6, the binding result was “binds”.

Values taken from doi:10.64898/2025.12.11.693822.
